Test results reported in the supplement of paper PMC10849652.
The other results are listed elsewhere or left out.

Chains of the proteins cited; added tags and fusions are not shown. Lines headed by an entry give the natural chain unless they say otherwise; changes in a name come on top.
UniProt Q8N2G8: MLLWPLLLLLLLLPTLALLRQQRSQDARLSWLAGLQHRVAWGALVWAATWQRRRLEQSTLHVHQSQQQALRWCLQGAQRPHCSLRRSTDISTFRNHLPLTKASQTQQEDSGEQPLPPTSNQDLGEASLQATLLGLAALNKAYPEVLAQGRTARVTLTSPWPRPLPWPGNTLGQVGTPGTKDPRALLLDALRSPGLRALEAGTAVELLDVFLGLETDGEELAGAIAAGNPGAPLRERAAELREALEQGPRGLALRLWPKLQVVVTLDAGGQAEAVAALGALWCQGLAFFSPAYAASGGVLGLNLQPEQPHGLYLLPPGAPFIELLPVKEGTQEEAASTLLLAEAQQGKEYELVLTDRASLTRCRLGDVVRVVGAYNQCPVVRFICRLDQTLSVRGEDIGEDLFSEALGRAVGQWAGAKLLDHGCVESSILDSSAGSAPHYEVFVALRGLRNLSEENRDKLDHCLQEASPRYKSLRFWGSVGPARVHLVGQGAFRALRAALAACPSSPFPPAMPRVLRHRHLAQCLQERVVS
UniProt Q04760: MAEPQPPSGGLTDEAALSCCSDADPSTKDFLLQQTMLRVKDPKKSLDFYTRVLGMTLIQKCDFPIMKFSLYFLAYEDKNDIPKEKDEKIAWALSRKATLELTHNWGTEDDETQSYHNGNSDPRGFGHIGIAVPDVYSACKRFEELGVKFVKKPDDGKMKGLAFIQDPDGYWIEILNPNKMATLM
UniProt Q9H3K2: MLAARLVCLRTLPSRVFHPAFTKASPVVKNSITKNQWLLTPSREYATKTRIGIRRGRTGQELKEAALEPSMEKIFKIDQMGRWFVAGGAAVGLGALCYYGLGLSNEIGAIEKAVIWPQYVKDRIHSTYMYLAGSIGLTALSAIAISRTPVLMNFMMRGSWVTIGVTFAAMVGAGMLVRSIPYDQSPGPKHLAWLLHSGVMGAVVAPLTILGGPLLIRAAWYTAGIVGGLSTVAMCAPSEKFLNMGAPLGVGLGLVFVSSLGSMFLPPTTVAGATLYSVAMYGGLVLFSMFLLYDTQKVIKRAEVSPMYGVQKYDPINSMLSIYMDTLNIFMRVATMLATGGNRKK
UniProt Q9H3C7, whole entry, looked up: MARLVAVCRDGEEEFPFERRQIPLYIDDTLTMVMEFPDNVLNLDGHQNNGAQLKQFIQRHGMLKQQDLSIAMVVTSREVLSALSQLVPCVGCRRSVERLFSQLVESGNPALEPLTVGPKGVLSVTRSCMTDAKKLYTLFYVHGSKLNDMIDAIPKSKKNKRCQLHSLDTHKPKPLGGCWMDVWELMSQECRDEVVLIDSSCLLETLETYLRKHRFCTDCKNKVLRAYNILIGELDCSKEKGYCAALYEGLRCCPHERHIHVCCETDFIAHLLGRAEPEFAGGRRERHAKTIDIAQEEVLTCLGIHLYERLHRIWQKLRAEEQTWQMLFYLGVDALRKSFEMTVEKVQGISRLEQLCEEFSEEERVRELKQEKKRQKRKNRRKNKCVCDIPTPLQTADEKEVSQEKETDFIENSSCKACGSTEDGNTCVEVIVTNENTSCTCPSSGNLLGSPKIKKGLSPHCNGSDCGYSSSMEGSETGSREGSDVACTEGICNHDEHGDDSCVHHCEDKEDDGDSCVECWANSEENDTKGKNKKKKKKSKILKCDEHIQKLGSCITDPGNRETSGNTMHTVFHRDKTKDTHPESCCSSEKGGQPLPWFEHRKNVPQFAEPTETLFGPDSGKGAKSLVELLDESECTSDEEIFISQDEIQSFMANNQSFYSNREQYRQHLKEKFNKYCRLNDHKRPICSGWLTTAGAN
UniProt Q7Z5G4, whole entry, looked up: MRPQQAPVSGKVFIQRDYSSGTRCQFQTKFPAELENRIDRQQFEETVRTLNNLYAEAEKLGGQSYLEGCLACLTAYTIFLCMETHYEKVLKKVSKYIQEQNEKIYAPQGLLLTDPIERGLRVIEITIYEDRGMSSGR
UniProt O95249: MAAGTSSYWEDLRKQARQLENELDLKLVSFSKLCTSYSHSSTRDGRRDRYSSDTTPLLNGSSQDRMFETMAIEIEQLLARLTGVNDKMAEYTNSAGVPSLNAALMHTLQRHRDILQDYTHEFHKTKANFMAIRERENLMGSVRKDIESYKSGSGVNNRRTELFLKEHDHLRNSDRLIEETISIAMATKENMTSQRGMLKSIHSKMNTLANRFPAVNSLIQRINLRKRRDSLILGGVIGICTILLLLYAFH
UniProt Q9UKJ3: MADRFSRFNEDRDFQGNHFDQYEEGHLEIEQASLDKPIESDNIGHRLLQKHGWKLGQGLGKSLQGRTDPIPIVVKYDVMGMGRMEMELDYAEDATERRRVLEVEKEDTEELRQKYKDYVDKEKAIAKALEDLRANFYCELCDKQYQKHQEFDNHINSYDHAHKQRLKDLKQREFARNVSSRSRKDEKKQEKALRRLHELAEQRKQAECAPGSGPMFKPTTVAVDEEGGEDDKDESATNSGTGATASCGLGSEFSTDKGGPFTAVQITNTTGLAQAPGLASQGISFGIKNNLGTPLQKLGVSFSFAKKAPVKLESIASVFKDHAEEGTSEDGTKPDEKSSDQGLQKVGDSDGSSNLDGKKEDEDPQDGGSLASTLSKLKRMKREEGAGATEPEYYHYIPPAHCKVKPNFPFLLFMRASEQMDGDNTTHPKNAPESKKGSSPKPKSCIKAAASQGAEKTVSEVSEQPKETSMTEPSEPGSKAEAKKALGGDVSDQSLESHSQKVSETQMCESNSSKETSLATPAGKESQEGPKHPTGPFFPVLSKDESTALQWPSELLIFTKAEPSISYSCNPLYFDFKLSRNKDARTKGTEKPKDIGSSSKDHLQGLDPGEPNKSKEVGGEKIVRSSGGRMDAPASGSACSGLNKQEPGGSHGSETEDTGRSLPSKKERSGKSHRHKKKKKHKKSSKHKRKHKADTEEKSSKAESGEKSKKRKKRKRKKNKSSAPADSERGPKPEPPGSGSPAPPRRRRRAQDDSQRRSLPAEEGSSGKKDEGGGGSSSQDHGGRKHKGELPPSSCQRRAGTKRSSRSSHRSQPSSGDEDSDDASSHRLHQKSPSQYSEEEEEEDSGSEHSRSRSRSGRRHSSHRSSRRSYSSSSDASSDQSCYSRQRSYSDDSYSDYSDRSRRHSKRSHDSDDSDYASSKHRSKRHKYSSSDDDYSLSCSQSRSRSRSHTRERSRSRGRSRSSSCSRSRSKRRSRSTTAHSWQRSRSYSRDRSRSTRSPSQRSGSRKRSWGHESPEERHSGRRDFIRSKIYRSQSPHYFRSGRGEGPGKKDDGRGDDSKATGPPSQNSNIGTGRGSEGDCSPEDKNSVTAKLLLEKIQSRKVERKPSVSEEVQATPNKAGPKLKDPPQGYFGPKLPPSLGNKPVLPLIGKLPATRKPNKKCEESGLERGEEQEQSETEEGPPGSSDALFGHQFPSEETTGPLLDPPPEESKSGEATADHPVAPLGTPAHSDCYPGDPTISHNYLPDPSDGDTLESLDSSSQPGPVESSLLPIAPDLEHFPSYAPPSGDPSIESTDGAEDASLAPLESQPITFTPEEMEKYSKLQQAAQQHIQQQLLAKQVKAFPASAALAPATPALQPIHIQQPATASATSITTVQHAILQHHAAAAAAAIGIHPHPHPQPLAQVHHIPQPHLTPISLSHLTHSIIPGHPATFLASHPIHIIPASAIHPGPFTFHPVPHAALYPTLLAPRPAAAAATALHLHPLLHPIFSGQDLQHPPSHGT
UniProt Q9H4G4: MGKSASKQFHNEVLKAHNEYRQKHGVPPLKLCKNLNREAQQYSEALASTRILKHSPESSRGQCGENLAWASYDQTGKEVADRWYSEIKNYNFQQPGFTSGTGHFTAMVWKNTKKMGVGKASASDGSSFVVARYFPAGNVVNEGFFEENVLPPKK
UniProt P32189: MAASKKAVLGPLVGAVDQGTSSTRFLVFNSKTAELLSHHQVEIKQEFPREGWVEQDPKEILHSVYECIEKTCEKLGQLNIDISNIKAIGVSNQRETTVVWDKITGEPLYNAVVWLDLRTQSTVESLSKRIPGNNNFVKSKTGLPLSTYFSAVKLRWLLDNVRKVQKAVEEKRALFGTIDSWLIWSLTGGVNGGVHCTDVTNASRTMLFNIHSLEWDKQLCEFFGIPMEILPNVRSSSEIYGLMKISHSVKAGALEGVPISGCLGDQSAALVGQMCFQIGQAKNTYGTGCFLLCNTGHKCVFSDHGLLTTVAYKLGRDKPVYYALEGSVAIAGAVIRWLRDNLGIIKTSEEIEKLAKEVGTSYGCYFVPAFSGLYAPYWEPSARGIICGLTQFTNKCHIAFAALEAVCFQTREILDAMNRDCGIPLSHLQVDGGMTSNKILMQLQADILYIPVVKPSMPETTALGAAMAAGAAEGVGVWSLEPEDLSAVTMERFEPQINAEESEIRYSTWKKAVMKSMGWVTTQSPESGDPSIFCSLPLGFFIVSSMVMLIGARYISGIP
UniProt Q9BRR8: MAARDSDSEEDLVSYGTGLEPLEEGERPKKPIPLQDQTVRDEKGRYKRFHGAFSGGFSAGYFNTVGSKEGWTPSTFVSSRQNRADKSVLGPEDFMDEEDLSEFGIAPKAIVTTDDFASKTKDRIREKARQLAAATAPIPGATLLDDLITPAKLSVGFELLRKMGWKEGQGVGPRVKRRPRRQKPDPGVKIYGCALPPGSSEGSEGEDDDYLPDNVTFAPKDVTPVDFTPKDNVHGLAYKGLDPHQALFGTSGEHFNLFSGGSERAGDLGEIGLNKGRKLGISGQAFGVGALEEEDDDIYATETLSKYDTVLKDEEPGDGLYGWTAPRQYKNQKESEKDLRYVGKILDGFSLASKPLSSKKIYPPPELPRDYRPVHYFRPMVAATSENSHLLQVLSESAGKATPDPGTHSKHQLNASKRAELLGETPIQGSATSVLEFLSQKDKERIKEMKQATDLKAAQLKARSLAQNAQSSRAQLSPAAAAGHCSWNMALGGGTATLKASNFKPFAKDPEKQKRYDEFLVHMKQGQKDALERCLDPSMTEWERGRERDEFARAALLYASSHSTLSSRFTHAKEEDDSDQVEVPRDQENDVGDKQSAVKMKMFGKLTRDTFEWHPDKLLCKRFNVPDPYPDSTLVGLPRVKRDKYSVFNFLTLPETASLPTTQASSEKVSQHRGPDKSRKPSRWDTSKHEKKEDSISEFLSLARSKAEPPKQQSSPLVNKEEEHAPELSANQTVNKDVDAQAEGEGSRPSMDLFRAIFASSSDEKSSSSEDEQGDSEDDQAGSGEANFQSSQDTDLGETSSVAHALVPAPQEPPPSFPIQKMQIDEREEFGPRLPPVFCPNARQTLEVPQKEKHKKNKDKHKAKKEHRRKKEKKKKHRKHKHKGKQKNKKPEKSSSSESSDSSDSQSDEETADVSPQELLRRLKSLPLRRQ
UniProt O75420: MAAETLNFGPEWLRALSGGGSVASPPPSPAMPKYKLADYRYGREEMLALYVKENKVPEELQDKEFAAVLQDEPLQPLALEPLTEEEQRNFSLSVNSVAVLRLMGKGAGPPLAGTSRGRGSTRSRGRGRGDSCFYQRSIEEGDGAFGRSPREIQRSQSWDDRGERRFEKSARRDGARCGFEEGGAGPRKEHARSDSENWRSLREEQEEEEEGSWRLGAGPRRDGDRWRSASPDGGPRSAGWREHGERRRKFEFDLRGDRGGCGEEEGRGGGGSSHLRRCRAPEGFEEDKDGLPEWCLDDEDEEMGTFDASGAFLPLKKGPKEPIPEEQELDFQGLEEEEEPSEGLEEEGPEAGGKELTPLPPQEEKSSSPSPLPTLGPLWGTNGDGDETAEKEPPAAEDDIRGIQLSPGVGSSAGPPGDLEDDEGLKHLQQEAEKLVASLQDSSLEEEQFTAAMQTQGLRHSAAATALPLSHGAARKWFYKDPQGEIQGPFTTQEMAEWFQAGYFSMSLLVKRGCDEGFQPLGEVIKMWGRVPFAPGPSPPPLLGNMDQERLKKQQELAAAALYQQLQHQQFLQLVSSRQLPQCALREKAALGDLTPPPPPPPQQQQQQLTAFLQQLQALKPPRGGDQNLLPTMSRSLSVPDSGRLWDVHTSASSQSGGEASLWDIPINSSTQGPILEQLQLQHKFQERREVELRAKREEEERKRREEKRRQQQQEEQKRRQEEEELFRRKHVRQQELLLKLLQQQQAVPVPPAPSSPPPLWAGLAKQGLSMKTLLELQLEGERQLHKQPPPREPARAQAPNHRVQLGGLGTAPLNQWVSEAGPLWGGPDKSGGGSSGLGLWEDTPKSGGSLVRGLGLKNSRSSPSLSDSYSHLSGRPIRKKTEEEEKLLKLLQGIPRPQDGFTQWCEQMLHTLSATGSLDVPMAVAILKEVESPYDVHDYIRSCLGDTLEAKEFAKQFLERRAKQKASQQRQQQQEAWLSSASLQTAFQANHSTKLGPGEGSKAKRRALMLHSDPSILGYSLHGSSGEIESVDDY
UniProt O75496: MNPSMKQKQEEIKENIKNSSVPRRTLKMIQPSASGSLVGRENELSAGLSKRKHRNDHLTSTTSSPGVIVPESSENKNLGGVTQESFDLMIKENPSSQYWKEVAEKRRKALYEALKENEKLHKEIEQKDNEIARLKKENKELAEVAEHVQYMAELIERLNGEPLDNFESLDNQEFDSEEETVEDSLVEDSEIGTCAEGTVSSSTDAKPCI

Legend:
Assay in all cases: log2 fold change, soluble protein after heating vs DMSO (PISA); higher = thermal stabilisation; K562 lysate, 10 uM; active = over 0.2 and 3.5 SD of the protein, either way, in both replicates (recomputed)
[1] = compound: CCCS(=O)(=O)Nc1ccc(F)c(C(=O)c2c[nH]c3ncc(-c4ccc(Cl)cc4)cc23)c1F [vemurafenib]
Summary of the method: (§1)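 Thermal stability, expressed as log-two fold change relative to solvent controls, is given from duplicates. Crude K562 extract in PBS pH 7.4 with 1 mM MgCl2, at 1 mg/mL protein, was treated with 10 μM compound for 30 min and heated in aliquots for 3 min across 48°C-58°C. After pooling, adjustment to 0.5% NP-40 at 4°C and centrifugation at 21,000xg for 90 min, supernatant protein was measured by TMTpro 16plex LC-MS/MS with channel sums equalised.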

[2] = compound: CCCS(=O)(=O)Nc1ccc(F)c(C(=O)c2c[nH]c3ncc(Cl)cc23)c1F
Summary of the method: as §1

[3] = compound: CCN(CCCOc1ccc2c(Nc3cc(CC(=O)Nc4cccc(F)c4)[nH]n3)ncnc2c1)CCOP(=O)(O)O [barasertib]
Summary of the method: as §1

[4] = compound: CC[C@@H]1C(=O)N(C)c2cnc(Nc3ccc(C(=O)NC4CCN(C)CC4)cc3OC)nc2N1C1CCCC1
Summary of the method: as §1

[5] = compound: CC[C@@H]1C(=O)N(C)c2cnc(Nc3ccc(C(=O)N[C@H]4CC[C@H](N5CCN(CC6CC6)CC5)CC4)cc3OC)nc2N1C(C)C [volasertib]
Summary of the method: as §1

[6] = compound: CCn1c(C(=O)N(C2CC2)C2CC2)cc2c3c(ncn3C)c(Nc3cc(C)n(C)n3)nc21
Summary of the method: as §1

[7] = compound: CCn1cc(-c2ccnc3[nH]c(-c4cccc(CN(C)C)c4)cc23)c(-c2ccc(NC(=O)N(C)C)cc2)n1
Summary of the method: as §1

[8] = compound: CN1CCC(CNc2ccc3ncc(-c4cccc(OC(F)(F)F)c4)n3n2)CC1
Summary of the method: as §1

[9] = compound: CN1CCN(CCOc2cc(OC3CCOCC3)c3c(Nc4c(Cl)ccc5c4OCO5)ncnc3c2)CC1 [saracatinib]
Summary of the method: as §1

[10] = compound: CN1CCN(c2nc(C3=C(c4c[nH]c5ccccc45)C(=O)NC3=O)c3ccccc3n2)CC1 [sotrastaurin]
Summary of the method: as §1

[11] = compound: CN1CC[C@H](c2c(O)cc(O)c3c(=O)cc(-c4ccccc4Cl)oc23)[C@H](O)C1 [alvocidib]
Summary of the method: as §1

[12] = compound: CN1CCc2c(c3ccccc3n2Cc2ccc(C(=O)NO)cc2)C1 [Tubastatin A]
Summary of the method: as §1

[13] = compound: CNC(=O)C1=CC=CC=C1NC2=NC(=NC=C2Cl)NC3=C(C=C(C=C3)N4CCOCC4)OC
Summary of the method: as §1

[14] = compound: CNC(=O)c1ccc(Nc2ncc(C(F)(F)F)c(NCc3nccnc3N(C)S(C)(=O)=O)n2)cc1 [defactinib]
Summary of the method: as §1

[15] = compound: CNc1nc(-c2ccc3c(N)n[nH]c3c2)cc(N2C[C@@H](C(=O)NC3CCCCC3)CC[C@H]2C)n1
Summary of the method: as §1

[16] = compound: COC(=O)N[C@@H](C)CNc1nccc(-c2cn(C(C)C)nc2-c2cc(Cl)cc(NS(C)(=O)=O)c2F)n1 [encorafenib]
Summary of the method: as §1

[17] = compound: COC(=O)[C@H](CCSC)NC(=O)C1=C(C=C(C=C1)NC[C@H](CS)N)C2=CC=CC=C2
Summary of the method: as §1

[18] = compound: COc1cc(Nc2ncc3c(n2)-c2ccc(Cl)cc2C(c2c(F)cccc2OC)=NC3)ccc1C(=O)O [alisertib]
Summary of the method: as §1

[19] = compound: COc1cc2nc(-c3cc(F)ccc3O)nc(N[C@@H]3CNC[C@H]3C(C)(C)O)c2cc1OC
Summary of the method: as §1

[20] = compound: COc1cc2ncnc(Nc3ccc(F)c(Cl)c3)c2cc1OCCCN1CCOCC1 [gefitinib]
Summary of the method: as §1

Measured: log2 fold change

GHDC (UniProt Q8N2G8)
inactive: [1] 0.083 | [2] 0.043 | [3] 0.035 | [4] 0.006 | [5] -0.051 | [6] -0.04 | [7] -0.007 | [8] -0.109 | [9] 0.012 | [10] 0.029 | [11] -0.031 | [12] -0.084 | [13] 0.027 | [14] 0.134 | [15] 0.094 | [16] -0.181 | [17] -0.02 | [18] 0.064 | [19] -0.12 | [20] 0.087

GLO1 (UniProt Q04760)
inactive: [1] -0.031 | [2] -0.015 | [3] -0.018 | [4] -0.008 | [5] 0.01 | [6] -0.016 | [7] -0.085 | [8] 0.037 | [9] 0 | [10] -0.031 | [11] 0.01 | [12] 0.059 | [13] -0.015 | [14] -0.032 | [15] 0.034 | [16] -0.021 | [17] -0.078 | [18] 0.013 | [19] -0.015 | [20] 0.007

GHITM (UniProt Q9H3K2)
inactive: [1] -0.006 | [2] 0.038 | [3] 0.015 | [4] 0.04 | [5] 0.049 | [6] -0.011 | [7] 0.008 | [8] 0.004 | [9] -0.004 | [10] -0.015 | [11] -0.005 | [12] 0.018 | [13] 0.013 | [14] 0.016 | [15] 0.041 | [16] 0 | [17] -0.05 | [18] 0.001 | [19] -0.006 | [20] -0.003

GGNBP2 (UniProt Q9H3C7)
inactive: [1] 0.045 | [2] 0.015 | [3] -0.008 | [4] 0.019 | [5] -0.024 | [6] 0.041 | [7] -0.1 | [8] 0.08 | [9] 0.03 | [10] 0.017 | [11] -0.117 | [12] -0.128 | [13] 0.078 | [14] 0.039 | [15] -0.034 | [16] -0.02 | [17] 0.047 | [18] -0.034 | [19] 0.046 | [20] -0.019

GOLGA7 (UniProt Q7Z5G4)
inactive: [1] -0.111 | [2] 0.023 | [3] 0.036 | [4] -0.001 | [5] 0.025 | [6] -0.033 | [7] 0.009 | [8] 0.013 | [9] 0.031 | [10] -0.05 | [11] -0.033 | [12] -0.01 | [13] -0.022 | [14] 0.016 | [15] -0.064 | [16] -0.002 | [17] -0.042 | [18] 0.043 | [19] 0 | [20] 0.049

2 successive entries out of the list so far, quoted:
GLO1 (UniProt Q04760)
inactive: [1] -0.031 | [2] -0.015 | [3] -0.018 | [4] -0.008 | [5] 0.01 | [6] -0.016 | [7] -0.085 | [8] 0.037 | [9] 0 | [10] -0.031 | [11] 0.01 | [12] 0.059 | [13] -0.015 | [14] -0.032 | [15] 0.034 | [16] -0.021 | [17] -0.078 | [18] 0.013 | [19] -0.015 | [20] 0.007

GHITM (UniProt Q9H3K2)
inactive: [1] -0.006 | [2] 0.038 | [3] 0.015 | [4] 0.04 | [5] 0.049 | [6] -0.011 | [7] 0.008 | [8] 0.004 | [9] -0.004 | [10] -0.015 | [11] -0.005 | [12] 0.018 | [13] 0.013 | [14] 0.016 | [15] 0.041 | [16] 0 | [17] -0.05 | [18] 0.001 | [19] -0.006 | [20] -0.003

(cont.)

GOSR1 (UniProt O95249)
inactive: [1] 0.045 | [2] -0.02 | [3] -0.004 | [4] -0.088 | [5] 0.019 | [6] 0.022 | [7] 0.003 | [8] -0.073 | [9] 0.008 | [10] -0.034 | [11] -0.011 | [12] -0.067 | [13] -0.038 | [14] 0.038 | [15] 0.006 | [16] 0.095 | [17] -0.07 | [18] -0.036 | [19] -0.044 | [20] 0.029

GPATCH8 (UniProt Q9UKJ3)
inactive: [1] 0.025 | [2] -0.035 | [3] 0.044 | [4] 0.006 | [5] 0.02 | [6] 0.024 | [7] 0.019 | [8] 0.023 | [9] 0.043 | [10] -0.017 | [11] -0.027 | [12] -0.024 | [13] 0.016 | [14] 0.018 | [15] 0.114 | [16] 0.117 | [17] 0.021 | [18] 0.001 | [19] 0.031 | [20] 0.062

GLIPR2 (UniProt Q9H4G4)
inactive: [1] -0.062 | [2] -0.025 | [3] -0.017 | [4] 0.024 | [5] 0.001 | [6] 0.014 | [7] 0.045 | [8] -0.035 | [9] -0.058 | [10] 0.033 | [11] 0.04 | [12] 0.004 | [13] 0.041 | [14] 0.018 | [15] 0.065 | [16] 0.012 | [17] -0.011 | [18] 0.018 | [19] -0.023 | [20] 0.029

GK (UniProt P32189)
inactive: [1] 0.031 | [2] -0.002 | [3] 0.031 | [4] 0.011 | [5] 0.013 | [6] 0.062 | [7] -0.045 | [8] 0.005 | [9] 0.016 | [10] 0.013 | [11] -0.016 | [12] -0.019 | [13] 0.013 | [14] -0.035 | [15] -0.065 | [16] 0.008 | [17] -0.01 | [18] 0.047 | [19] -0.013 | [20] 0.064

GGT1 (UniProt P19440)
inactive: [1] 0.001 | [2] -0.01 | [3] -0.007 | [4] 0.062 | [5] 0.042 | [6] 0.066 | [7] -0.038 | [8] -0.01 | [9] 0.016 | [10] 0.005 | [11] -0.049 | [12] -0.021 | [13] -0.026 | [14] 0.024 | [15] -0.017 | [16] 0.052 | [17] -0.02 | [18] 0.019 | [19] -0.05 | [20] -0.011

GLCCI1 (UniProt Q86VQ1)
inactive: [1] -0.03 | [2] 0.071 | [3] -0.018 | [4] -0.04 | [5] 0.008 | [6] -0.067 | [7] -0.039 | [8] -0.042 | [9] -0.065 | [10] 0.022 | [11] -0.004 | [12] -0.043 | [13] -0.022 | [14] -0.059 | [15] 0.026 | [16] -0.019 | [17] 0.16 | [18] -0.05 | [19] -0.012 | [20] -0.019

GPATCH1 (UniProt Q9BRR8)
inactive: [1] 0.01 | [2] -0.033 | [3] 0.056 | [4] -0.076 | [5] -0.037 | [6] 0.038 | [7] 0.293 | [8] -0.066 | [9] 0.075 | [10] -0.015 | [11] 0.071 | [12] -0.065 | [13] 0.014 | [14] -0.06 | [15] 0.182 | [16] 0.04 | [17] 0.016 | [18] -0.349 | [19] -0.014 | [20] -0.141

GID8 (UniProt Q9NWU2)
inactive: [1] -0.016 | [2] 0.008 | [3] 0.223 | [4] 0.04 | [5] 0.022 | [6] 0.006 | [7] -0.017 | [8] -0.019 | [9] 0.01 | [10] 0.042 | [11] 0.004 | [12] -0.028 | [13] 0.031 | [14] 0.042 | [15] 0.04 | [16] 0.053 | [17] -0.055 | [18] 0.026 | [19] 0.024 | [20] -0.067

GIGYF1 (UniProt O75420)
inactive: [1] 0.065 | [2] -0.059 | [3] 0 | [4] 0.09 | [5] -0.095 | [6] 0.071 | [7] -0.001 | [8] 0.031 | [9] 0.008 | [10] -0.012 | [11] -0.058 | [12] -0.089 | [13] 0.01 | [14] -0.068 | [15] 0.068 | [16] 0.089 | [17] 0.009 | [18] 0.057 | [19] -0.019 | [20] 0.015

GLG1 isoform 2 (UniProt Q92896)
inactive: [1] -0.029 | [2] -0.006 | [3] -0.005 | [4] 0.053 | [5] 0.022 | [6] 0.013 | [7] -0.011 | [8] 0.007 | [9] 0.003 | [10] 0.075 | [11] -0.013 | [12] 0.047 | [13] 0.003 | [14] 0.04 | [15] 0.01 | [16] 0.014 | [17] -0.073 | [18] -0.011 | [19] 0.009 | [20] 0.055

GMNN (UniProt O75496)
inactive: [1] -0.007 | [2] 0.01 | [3] -0.002 | [4] -0.01 | [5] 0.019 | [6] 0.006 | [7] -0.055 | [8] 0.004 | [9] 0 | [10] -0.024 | [11] -0.023 | [12] 0.024 | [13] -0.019 | [14] -0.003 | [15] -0.013 | [16] 0.012 | [17] -0.021 | [18] -0.023 | [19] 0.023 | [20] -0.025
